Drawing on PubChem BioAssay AID493014 (National Center for Advancing Translational Sciences (NCATS), 2011), this text covers AC50 for 14 compounds.

Some of the results follow. The main result of the screen is listed elsewhere. These columns were measured beside it and carry no call. Most of these compounds were active or inconclusive in the main read-out, so they are no random draw. Words in brackets tell the shape of the fitted curve; partial curves, single points and poor fits give uncertain potencies.

This assay in a line: qHTS Assay to Find Inhibitors of Chronic Active B-Cell Receptor Signaling. The following applies: ABC-DLBCL IkBa-CBG/CBR reporter, luminescence ratio (green luciferase fused to IkBa over red control in TMD8 lymphoma cells), 4 h. The gist of the method:
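Compounds up to 46 uM were incubated four hours with TMD8 cells whose green CBG68 luciferase is fused to IkappaBalpha; red CBR luminescence normalised the signal, and concentration-effect curves were fitted to fusion, red and ratio data.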

Setting [1] is: measured here: CBR red luminescence, cell number.

One may read the AC50 as the concentration at which the activity in the assay is half-maximal.

On to `C/C1=C\[C@@H](C)C/C=C/[C@H]2[C@@H]3O[C@]3(C)[C@@H](C)[C@H]3[C@H](Cc4c[nH]c5ccccc45)NC(=O)[C@]32C(=O)/C=C/C(=O)[C@@H]1O`, for which, under setting [1], the AC50 was 35.5 µM [falling, single point].

As to `O=C(COc1ccc2ccccc2c1)N1CCN(Cc2c[nH]c3ccccc23)CC1`, the AC50 under setting [1] is 13 µM [falling, partial curve, poor fit].

For `O=C(Cn1c(=O)oc2ccccc21)Nc1ccc(F)cc1`, the AC50 under setting [1] is 5.01 µM [falling, full curve]. For the compound `COc1ccc(N2C(=O)NC(=O)/C(=C\c3cn(C)c4ccccc34)C2=O)cc1`, the AC50 under setting [1] is 4.47 µM [rising, single point]. The same measure, in the same setting: under `Nc1ncnc2c1ncn2C1OC(COP(=O)(O)O)C(O)C1O` (stereo not given) stands 10 µM [rising, partial curve]; under `Cc1ccc(-n2nc(C)c(C3C(C#N)=C(N)Oc4c3c(=O)oc3ccccc43)c2Cl)cc1` (stereo not given), 23.1 µM [falling, single point]. Same read-out and setting: under `COC(=O)C1=C(c2ccccc2)C[C@@H]2CC[C@H]1N2C` stands 1.84 µM [falling, partial curve]; under `Cc1ccc2c(c1)C1CN(C)CCC1N2C(=O)CCCN1C(=O)c2cccc3cccc(c23)C1=O` (stereo not given), 1.58 µM [rising, full curve, poor fit]. With `C[C@@H]1O[C@@H](O[C@H]2C[C@@H](O)[C@]3(CO)[C@H]4[C@H](O)C[C@]5(C)[C@@H](C6COC(=O)C6)CC[C@]5(O)[C@@H]4CC[C@]3(O)C2)[C@H](O)[C@H](O)[C@H]1O` (stereo not given in full), the AC50 was 1.78 µM [falling, full curve, poor fit] under setting [1] and 23.1 µM [rising, partial curve, poor fit] (measured here: IkBa-CBG green luminescence). With `Cc1ccccc1OC(=O)n1c(=S)oc2cc(Cl)ccc21`, under setting [1], the AC50 is 18.4 µM [rising, single point].

Take `CC(C)[C@H]1C(=O)O[C@H](C(C)C)C(=O)N(C)[C@@H](C(C)C)C(=O)O[C@H](C(C)C)C(=O)N(C)[C@@H](C(C)C)C(=O)O[C@H](C(C)C)C(=O)N1C`: the AC50 under setting [1] is 4.47 µM [falling, full curve, poor fit].

For `O=C(/C=C/c1ccco1)NC(=S)Nc1ccccc1O`, the AC50 under setting [1] was 11.2 µM [falling, partial curve]. Regarding `O=c1[nH]c2ccccc2n1CCCN1CCC(n2c(=O)[nH]c3cc(Cl)ccc32)CC1`, the AC50 under setting [1] is 7.08 µM [falling, partial curve, poor fit]. As for `CCCCn1c(=O)c(C(=O)Nc2nnc(C(C)C)s2)c(O)c2ccccc21`, under setting [1], the AC50 was 0.447 µM [falling, full curve, poor fit].
